# Laboratory results reported in patent EP4786486A1, “PEPTIDES FOR TREATING CARDIAC DISEASES” (Universidad Complutense De Madrid, priority 2023, dated 2025).
# The chains behind the UniProt entries cited, without tags or fusion partners. Residues count along the entry.
# UniProt Q14524, 1-2015 isoform Q14524-2: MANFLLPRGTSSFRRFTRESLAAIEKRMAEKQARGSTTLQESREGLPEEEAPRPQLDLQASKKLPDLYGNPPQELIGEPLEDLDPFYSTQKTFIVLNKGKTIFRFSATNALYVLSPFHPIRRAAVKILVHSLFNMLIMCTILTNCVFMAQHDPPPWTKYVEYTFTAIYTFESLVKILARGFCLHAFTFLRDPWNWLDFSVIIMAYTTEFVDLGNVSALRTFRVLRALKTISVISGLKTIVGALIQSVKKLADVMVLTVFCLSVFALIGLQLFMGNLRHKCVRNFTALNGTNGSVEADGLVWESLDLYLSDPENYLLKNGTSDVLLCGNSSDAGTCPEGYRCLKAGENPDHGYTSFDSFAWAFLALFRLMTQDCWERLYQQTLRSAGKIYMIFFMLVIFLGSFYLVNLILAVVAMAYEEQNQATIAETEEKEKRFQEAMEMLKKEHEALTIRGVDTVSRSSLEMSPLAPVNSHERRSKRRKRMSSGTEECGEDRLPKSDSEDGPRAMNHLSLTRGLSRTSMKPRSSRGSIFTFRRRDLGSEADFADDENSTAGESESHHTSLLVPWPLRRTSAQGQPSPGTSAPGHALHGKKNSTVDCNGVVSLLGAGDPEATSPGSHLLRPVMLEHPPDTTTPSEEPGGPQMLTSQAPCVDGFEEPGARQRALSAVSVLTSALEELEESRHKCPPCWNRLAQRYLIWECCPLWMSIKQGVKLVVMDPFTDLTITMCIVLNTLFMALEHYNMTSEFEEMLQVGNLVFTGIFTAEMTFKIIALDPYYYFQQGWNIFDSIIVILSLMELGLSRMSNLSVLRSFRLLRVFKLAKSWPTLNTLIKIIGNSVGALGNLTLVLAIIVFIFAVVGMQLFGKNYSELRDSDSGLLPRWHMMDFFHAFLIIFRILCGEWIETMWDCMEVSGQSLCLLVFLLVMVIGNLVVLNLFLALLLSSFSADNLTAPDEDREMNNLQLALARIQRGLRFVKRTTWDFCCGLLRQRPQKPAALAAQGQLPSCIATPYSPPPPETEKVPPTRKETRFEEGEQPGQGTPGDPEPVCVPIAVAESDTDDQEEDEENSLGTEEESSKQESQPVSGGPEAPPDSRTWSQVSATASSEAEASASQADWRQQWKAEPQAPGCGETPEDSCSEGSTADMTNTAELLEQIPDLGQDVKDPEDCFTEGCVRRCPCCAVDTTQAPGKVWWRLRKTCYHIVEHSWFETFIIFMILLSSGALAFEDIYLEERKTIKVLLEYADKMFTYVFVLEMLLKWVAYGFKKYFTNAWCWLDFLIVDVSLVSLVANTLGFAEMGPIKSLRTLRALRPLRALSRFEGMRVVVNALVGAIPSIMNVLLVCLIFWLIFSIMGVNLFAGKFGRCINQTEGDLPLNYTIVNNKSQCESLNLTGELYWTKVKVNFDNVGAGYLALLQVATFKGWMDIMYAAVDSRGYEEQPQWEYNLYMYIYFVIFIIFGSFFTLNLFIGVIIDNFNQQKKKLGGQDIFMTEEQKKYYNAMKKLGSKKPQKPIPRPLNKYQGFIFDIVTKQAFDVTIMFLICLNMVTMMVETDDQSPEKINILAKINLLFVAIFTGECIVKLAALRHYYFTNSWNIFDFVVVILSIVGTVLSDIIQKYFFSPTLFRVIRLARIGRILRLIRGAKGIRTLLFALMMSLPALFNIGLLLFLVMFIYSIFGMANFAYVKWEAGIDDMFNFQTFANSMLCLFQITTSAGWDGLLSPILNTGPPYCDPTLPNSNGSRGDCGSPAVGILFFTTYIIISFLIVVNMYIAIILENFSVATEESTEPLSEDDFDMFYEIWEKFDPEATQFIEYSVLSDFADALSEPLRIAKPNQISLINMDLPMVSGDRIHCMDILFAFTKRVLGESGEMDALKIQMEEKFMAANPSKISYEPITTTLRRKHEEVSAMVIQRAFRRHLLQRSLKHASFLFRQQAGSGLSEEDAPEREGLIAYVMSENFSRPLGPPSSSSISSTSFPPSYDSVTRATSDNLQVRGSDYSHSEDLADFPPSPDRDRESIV
# Part of at least one peptide drawing is inferred or uncertain, most often the ends. Where a SMILES comes first, the peptide text is derived from it. The star is where a group is joined. Palmitoyl = CCCCCCCCCCCCCCCC(=O)*
# Target: T1, human Nav1.5 channels (Homo sapiens, UniProt Q14524)
# T1 construct: expressed in transfected cells; host or cells: CHO (Chinese hamster ovary) cells
# Experiment: INa density in CHO cells expressing Nav1.5 incubated with the peptide, whole-cell patch-clamp
# Format: cell-based
# Conditions: for increase of normalised density of the maximum peak of INa compared with that produced by cDNA SEQ ID NO: 5: CHO cells expressing Nav1.5, 24 hours, 10 µM; for INa (INa-voltage density curves): CHO cells expressing Nav1.5 incubated 24 hours with peptide at 10 µM, vs. untreated control cells, various membrane potentials, P<0.05
SMILES,increase of normalised density of the maximum peak of INa compared with that produced by cDNA SEQ ID NO: 5,INa (INa-voltage density curves)
"CCCCCCCCCCCCCCCC(=O)N[C@@H](CCCNC(=N)N)C(=O)N[C@@H](Cc1ccccc1)C(=O)N[C@H](C(=O)N[C@@H](CCCNC(=N)N)C(=O)N[C@@H](CCC(=O)O)C(=O)N[C@@H](CO)C(=O)N[C@@H](CC(C)C)C(=O)N[C@@H](C)C(=O)N[C@@H](C)C(=O)N[C@H](C(=O)N[C@@H](CCC(=O)O)C(=O)N[C@@H](CCCCN)C(N)=O)[C@@H](C)CC)[C@@H](C)O [Pal-SEQ ID NO: 23-NH2, Pal-RFTRESLAAIEK-NH2] (Palmitoyl-RFTRESLAAIEK-NH2)",similar,statistically significantly increase
"CCCCCCCCCCCCCCCC(=O)N[C@@H](Cc1ccccc1)C(=O)N[C@H](C(=O)N[C@@H](CCCNC(=N)N)C(=O)N[C@@H](CCC(=O)O)C(=O)N[C@@H](CO)C(=O)N[C@@H](CC(C)C)C(=O)N[C@@H](C)C(=O)N[C@@H](C)C(=O)N[C@H](C(=O)N[C@@H](CCC(=O)O)C(=O)N[C@@H](CCCCN)C(N)=O)[C@@H](C)CC)[C@@H](C)O [Pal-SEQ ID NO: 25-NH2, Pal-FTRESLAAIEK-NH2] (Palmitoyl-FTRESLAAIEK-NH2)",similar,statistically significantly increase
